# Results from paper PMC10688318.
# These are yes or no findings as the source states them, for the method shown. In cells and extracts the contact can be indirect. Here binding means that the protein was enriched with, or labelled near, the bait; the list need not be complete. No binding means not detected with the bait.
# B1: HSD17B12 (enzyme, UniProt Q53GQ0 1-312)
# chain: MESALPAAGFLYWVGAGTVAYLALRISYSLFTALRVWGVGNEAGVGPGLGEWAVVTGSTDGIGKSYAEELAKHGMKVVLISRSKDKLDQVSSEIKEKFKVETRTIAVDFASEDIYDKIKTGLAGLEIGILVNNVGMSYEYPEYFLDVPDLDNVIKKMININILSVCKMTQLVLPGMVERSKGAILNISSGSGMLPVPLLTIYSATKTFVDFFSQCLHEEYRSKGVFVQSVLPYFVATKLAKIRKPTLDKPSPETFVKSAIKTVGLQSRTNGYLIHALMGSIISNLPSWIYLKIVMNMNKSTRAHYLKKTKKN
# Molecular target: HA-nsp3mut/4-V5 (unprocessed nsp3/4 polyprotein with inactive PLpro protease, C1592A) (SARS-CoV-2)
# Test: affinity purification with mass spectrometry
binder,measurement,value
B1,binding,no binding
